The record followed here is publication PMC12874371, “Screening of FDA-Approved Small Molecules to Discover Inhibitors of the Pseudomonas aeruginosa Quorum-Sensing Enzyme, PqsE” (Biochemistry, 2026).

Chains of the proteins cited; added tags and fusions are not shown.
UniProt P20581, whole entry S285W: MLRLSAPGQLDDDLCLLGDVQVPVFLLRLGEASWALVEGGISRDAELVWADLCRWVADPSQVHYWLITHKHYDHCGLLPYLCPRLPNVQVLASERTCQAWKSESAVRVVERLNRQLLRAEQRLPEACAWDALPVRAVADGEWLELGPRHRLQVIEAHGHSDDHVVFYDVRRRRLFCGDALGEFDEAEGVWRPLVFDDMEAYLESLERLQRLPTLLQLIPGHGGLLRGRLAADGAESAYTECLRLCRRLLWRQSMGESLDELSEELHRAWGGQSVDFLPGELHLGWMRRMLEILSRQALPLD

SMILES strings stand for the structures.

This assay addresses T1, PqsE(S285W) (Pseudomonas aeruginosa, UniProt P20581, S285W).
T1 construct: 6xHis (N); made in house; host or cells: E. coli BL21 (DE3), pET28b-6xHis-pqsE(S285W) (strain IT55)
Format: biochemical. As to conditions: side-by-side with PqsE(WT), Figure 2.

In the case of `O=c1n(CCCN2CCN(c3cccc(Cl)c3)CC2)nc2ccccn12` [Trazodone], the “IC50 against PqsE(S285W), esterase assay” value is recorded as “could not be determined”.
